# Assay results as given in the supplement of paper PMC12819154, “High-throughput peptide-centric local stability assay extends protein–ligand identification to membrane proteins, tissues and bacteria” (Nature Structural & Molecular Biology, 2025).
# The chains behind the UniProt entries cited, without tags or fusion partners. Where a name states a change or a piece, a line headed by the entry shows the natural chain unless it says otherwise.
# UniProt Q9NSI8: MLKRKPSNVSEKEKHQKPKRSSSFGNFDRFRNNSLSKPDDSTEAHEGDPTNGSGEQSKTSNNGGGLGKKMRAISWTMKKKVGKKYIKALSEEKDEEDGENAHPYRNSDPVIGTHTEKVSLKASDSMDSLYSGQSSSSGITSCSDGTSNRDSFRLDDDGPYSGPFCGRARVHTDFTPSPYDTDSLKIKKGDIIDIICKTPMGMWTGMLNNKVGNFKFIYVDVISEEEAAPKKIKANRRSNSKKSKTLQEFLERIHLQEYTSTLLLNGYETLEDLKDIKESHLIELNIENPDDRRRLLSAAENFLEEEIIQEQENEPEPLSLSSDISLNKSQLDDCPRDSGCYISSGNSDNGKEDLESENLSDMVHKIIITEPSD
# UniProt Q9NYU2: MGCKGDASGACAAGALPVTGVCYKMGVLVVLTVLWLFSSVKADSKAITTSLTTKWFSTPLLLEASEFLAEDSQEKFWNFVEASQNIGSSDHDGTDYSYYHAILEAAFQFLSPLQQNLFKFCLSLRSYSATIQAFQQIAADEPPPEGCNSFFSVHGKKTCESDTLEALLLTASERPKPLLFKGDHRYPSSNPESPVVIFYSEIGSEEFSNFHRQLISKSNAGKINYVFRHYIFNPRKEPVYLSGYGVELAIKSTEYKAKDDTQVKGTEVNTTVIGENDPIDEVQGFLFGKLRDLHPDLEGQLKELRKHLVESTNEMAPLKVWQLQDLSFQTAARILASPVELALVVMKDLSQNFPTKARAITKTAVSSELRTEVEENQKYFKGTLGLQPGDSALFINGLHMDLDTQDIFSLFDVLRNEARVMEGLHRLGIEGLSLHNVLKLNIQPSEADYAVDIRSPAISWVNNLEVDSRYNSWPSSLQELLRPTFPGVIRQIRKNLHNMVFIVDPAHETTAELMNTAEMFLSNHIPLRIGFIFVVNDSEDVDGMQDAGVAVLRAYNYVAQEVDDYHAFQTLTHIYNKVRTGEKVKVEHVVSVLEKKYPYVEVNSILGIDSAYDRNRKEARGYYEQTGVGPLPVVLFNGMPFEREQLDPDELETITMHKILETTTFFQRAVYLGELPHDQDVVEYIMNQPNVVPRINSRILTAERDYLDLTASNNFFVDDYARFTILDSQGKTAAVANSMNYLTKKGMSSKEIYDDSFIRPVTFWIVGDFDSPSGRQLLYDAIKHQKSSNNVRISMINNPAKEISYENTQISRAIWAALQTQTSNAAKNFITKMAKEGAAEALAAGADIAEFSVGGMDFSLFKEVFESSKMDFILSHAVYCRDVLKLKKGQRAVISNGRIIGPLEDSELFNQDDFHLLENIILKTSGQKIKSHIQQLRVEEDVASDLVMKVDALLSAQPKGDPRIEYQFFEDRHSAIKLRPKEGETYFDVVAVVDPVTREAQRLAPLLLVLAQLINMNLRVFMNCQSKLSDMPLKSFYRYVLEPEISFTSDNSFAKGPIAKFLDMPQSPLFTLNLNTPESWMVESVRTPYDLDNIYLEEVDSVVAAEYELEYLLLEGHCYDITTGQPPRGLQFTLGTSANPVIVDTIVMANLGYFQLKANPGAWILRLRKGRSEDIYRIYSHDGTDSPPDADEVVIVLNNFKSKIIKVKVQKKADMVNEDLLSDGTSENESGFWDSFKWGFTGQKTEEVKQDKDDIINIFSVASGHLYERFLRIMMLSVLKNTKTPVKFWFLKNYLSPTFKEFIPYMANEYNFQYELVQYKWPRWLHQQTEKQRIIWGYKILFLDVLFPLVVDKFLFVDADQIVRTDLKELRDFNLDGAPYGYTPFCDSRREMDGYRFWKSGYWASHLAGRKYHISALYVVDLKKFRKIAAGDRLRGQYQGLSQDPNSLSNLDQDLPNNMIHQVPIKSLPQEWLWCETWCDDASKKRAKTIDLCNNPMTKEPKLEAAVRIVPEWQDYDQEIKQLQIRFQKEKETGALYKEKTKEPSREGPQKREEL
# UniProt Q9NX01: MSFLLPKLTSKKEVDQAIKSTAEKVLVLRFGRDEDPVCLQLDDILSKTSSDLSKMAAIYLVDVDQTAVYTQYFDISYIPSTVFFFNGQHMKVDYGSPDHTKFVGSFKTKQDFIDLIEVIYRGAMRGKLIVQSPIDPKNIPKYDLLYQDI
# UniProt Q9NXE4: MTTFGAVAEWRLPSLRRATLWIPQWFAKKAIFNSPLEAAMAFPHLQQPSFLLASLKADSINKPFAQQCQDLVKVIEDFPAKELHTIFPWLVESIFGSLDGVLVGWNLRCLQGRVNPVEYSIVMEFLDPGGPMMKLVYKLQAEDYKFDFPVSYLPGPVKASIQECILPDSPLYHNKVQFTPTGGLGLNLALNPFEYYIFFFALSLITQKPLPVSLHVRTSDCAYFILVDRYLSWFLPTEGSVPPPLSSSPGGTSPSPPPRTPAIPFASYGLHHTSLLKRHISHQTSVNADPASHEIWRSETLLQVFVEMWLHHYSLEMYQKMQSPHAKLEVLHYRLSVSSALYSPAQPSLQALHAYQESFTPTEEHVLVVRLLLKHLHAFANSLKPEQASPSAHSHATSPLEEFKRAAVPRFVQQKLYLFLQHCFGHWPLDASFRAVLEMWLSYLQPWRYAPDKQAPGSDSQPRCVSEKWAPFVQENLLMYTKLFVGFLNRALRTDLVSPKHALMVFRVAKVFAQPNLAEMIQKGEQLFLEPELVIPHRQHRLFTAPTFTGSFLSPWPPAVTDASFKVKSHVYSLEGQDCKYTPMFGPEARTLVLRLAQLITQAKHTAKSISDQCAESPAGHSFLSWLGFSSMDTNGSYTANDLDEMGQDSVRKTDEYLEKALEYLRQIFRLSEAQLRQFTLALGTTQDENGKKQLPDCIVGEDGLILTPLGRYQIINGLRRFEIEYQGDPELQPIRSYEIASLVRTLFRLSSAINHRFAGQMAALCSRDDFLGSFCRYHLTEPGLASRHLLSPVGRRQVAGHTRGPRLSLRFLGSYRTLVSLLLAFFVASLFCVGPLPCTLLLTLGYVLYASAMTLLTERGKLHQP
# UniProt Q9NXR8, whole entry: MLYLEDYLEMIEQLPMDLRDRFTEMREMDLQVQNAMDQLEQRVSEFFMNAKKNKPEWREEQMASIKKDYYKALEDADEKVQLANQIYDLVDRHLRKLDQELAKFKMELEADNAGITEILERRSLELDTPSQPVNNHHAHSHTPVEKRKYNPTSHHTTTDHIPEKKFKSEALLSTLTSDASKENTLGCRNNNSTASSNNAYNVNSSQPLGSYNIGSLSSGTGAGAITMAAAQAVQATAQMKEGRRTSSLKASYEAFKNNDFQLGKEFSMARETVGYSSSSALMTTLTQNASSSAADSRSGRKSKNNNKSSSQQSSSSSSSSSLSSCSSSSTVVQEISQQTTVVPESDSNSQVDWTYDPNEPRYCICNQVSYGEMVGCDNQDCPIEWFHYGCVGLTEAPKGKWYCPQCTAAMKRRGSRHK
# UniProt Q9NTI5: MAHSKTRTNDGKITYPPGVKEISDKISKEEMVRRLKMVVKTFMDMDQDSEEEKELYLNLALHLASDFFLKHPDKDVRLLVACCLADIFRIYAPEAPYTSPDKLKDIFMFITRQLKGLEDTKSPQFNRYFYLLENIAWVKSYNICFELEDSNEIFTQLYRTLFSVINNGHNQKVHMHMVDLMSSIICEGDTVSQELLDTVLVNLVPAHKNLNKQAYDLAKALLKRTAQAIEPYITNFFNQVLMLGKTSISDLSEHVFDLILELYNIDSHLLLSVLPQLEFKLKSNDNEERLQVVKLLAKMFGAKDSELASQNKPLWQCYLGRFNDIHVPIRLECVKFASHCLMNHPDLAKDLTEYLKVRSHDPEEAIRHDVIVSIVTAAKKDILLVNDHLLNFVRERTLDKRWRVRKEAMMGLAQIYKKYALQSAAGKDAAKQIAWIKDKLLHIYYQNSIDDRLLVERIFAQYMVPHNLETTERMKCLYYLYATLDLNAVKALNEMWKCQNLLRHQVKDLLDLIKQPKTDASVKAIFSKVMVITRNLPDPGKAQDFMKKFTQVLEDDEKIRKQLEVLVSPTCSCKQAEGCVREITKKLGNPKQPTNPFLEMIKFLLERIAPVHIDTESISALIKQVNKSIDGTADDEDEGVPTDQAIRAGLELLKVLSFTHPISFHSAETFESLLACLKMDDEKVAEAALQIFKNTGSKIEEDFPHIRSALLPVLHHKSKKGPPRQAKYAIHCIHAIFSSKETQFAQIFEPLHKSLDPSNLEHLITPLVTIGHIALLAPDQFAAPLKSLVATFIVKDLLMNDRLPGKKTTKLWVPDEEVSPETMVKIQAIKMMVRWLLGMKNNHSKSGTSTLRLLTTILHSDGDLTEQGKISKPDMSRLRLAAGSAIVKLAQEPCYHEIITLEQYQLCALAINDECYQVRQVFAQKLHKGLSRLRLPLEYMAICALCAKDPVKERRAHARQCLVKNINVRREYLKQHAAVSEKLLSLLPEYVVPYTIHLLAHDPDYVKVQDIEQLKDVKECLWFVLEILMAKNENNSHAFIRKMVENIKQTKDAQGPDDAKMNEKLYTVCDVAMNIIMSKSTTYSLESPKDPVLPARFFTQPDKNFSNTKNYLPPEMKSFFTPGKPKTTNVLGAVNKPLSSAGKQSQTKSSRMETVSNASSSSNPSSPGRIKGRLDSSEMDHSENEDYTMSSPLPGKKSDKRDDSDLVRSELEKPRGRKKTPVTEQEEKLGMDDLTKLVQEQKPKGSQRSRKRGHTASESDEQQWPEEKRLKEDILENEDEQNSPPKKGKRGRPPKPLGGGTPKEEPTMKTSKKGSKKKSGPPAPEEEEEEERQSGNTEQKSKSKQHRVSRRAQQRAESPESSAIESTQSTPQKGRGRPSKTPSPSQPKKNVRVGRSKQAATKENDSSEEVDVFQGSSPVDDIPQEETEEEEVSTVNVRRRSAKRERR
# UniProt Q9NUY8: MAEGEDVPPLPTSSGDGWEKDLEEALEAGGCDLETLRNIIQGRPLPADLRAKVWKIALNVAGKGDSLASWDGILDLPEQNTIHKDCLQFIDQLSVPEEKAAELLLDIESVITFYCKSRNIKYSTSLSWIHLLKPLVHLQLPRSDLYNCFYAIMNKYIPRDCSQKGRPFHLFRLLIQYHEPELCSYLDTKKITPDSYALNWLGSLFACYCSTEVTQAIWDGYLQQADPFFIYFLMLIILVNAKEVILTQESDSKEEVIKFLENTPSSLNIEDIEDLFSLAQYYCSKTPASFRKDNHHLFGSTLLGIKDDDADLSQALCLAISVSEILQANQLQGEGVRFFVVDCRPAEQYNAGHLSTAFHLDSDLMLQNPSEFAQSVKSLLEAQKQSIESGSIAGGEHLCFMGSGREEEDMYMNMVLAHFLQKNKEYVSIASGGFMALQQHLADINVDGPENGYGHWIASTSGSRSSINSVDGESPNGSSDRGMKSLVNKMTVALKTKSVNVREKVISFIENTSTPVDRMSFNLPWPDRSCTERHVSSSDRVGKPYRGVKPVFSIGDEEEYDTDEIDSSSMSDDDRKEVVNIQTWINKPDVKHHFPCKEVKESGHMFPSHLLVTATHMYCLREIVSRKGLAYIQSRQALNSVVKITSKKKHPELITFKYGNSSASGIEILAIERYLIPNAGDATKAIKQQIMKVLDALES
# UniProt Q9NRY5: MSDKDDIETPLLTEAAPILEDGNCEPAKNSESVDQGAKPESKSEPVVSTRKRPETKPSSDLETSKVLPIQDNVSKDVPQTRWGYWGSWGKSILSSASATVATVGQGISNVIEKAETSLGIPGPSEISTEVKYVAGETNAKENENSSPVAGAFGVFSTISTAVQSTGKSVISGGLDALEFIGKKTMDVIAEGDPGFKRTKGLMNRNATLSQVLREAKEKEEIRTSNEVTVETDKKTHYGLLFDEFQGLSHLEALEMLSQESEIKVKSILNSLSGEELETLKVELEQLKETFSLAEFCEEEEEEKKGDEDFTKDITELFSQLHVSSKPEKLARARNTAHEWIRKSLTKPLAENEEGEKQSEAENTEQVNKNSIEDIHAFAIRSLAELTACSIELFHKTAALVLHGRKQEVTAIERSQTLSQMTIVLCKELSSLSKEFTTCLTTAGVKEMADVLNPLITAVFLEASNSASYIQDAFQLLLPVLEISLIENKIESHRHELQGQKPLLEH
# UniProt Q9NUQ3: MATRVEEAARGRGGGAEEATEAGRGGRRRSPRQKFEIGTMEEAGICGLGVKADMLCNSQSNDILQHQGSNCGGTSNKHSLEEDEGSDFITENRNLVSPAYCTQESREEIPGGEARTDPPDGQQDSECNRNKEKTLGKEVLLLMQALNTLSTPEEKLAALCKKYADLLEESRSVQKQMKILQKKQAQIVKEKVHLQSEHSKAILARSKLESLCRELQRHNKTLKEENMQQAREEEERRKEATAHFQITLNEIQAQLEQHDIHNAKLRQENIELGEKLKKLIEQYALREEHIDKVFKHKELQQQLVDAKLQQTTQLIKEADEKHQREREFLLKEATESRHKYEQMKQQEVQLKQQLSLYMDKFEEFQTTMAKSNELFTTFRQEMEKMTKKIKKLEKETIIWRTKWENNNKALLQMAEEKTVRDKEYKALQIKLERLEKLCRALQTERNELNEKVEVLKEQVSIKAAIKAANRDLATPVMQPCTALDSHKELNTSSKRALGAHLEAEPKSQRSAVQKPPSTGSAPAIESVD
# This is one part of the list. Small differences around the control level are noise.
# Compound: CN[C@@H]1C[C@H]2O[C@@](C)([C@@H]1OC)n1c3ccccc3c3c4c(c5c6ccccc6n2c5c31)C(=O)NC4 [staurosporine]
# Experiment: log2 fold change of tryptic peptide abundance, ligand vs vehicle (limited proteolysis) (log2 ratio); higher = more trypsin-susceptible (destabilized)
# Conditions: ligand concentration: 20 uM; sample: K562 cleared lysate; digestion: 4 min, 22 C (HT-PELSA RT4min, Orbitrap Astral)
row,Target,log2 fold change
1,"SAMSN1 (peptide sequence: KPSNVSEK, peptide start residue: 5) (UniProt Q9NSI8)",0.17
2,"NLE1 (peptide sequence: TLESQAVETEK, peptide start residue: 76) (UniProt Q9NVX2)",0.257
3,"UniProt Q9NX55 (peptide sequence: VTIKKEDLELIMTEMEISR, peptide start residue: 80)",0.477
4,"UniProt Q9NR48 (peptide sequence: LGLGTVVGLVNK, peptide start residue: 359)",0.574
5,"ANLN (peptide sequence: TGVSKPIVK, peptide start residue: 327) (UniProt Q9NQW6)",0.304
6,"UniProt Q9NYU2 (peptide sequence: EQLDPDELETITMHK, peptide start residue: 644)",0.525
7,"PDLIM7 (peptide sequence: ASAPAADPPR, peptide start residue: 94) (UniProt Q9NR12)",-0.144
8,"BIN3 (peptide sequence: EELRPVREDFEAK, peptide start residue: 163) (UniProt Q9NQY0)",0.487
9,"CHRAC1 (peptide sequence: LISLPLSR, peptide start residue: 16) (UniProt Q9NRG0)",0.126
10,"SIRT3 (peptide sequence: LSLQDVAELIR, peptide start residue: 123) (UniProt Q9NTG7)",-0.199
11,"SACM1L (peptide sequence: TNVIQSLLAR, peptide start residue: 396) (UniProt Q9NTJ5)",0.235
12,"NECAP2 (peptide sequence: QAQNPDQGPKLDLGFK, peptide start residue: 138) (UniProt Q9NVZ3)",-0.252
13,"UniProt Q9NWV4 (peptide sequence: ATLENITNLRPVGEDFR, peptide start residue: 10)",0.569
14,"BSDC1 (peptide sequence: EEAPTDLR, peptide start residue: 359) (UniProt Q9NW68)",-0.132
15,"DDX28 (peptide sequence: GSFADLGLEPR, peptide start residue: 126) (UniProt Q9NUL7)",-0.203
16,"TMLHE (peptide sequence: FDYVWLR, peptide start residue: 71) (UniProt Q9NVH6)",-0.0157
17,"TXNL4B (peptide sequence: TKQDFIDLIEVIYR, peptide start residue: 108) (UniProt Q9NX01)",0.377
18,"OLA1 (peptide sequence: GGDGIKPPPIIGR, peptide start residue: 6) (UniProt Q9NTK5)",0.232

# Pulled one by one from the entries so far:
row,Target,log2 fold change
9,"CHRAC1 (peptide sequence: LISLPLSR, peptide start residue: 16) (UniProt Q9NRG0)",0.126
3,"UniProt Q9NX55 (peptide sequence: VTIKKEDLELIMTEMEISR, peptide start residue: 80)",0.477

# The list goes on.

row,Target,log2 fold change
1,"SMPD4 (peptide sequence: RFEIEYQGDPELQPIR, peptide start residue: 721) (UniProt Q9NXE4)",-0.248
2,"SLC35D1 (peptide sequence: QKLDSKELGK, peptide start residue: 207) (UniProt Q9NTN3)",0.105
3,"FANCL (peptide sequence: MLLEVALK, peptide start residue: 89) (UniProt Q9NW38)",-0.178
4,"FANCI (peptide sequence: EDALFCK, peptide start residue: 1020) (UniProt Q9NVI1)",0.457
5,"RLIM (peptide sequence: SHHSISSQTFEHPLVNETEGSSR, peptide start residue: 242) (UniProt Q9NVW2)",0.586
6,"UniProt Q9NYU1 (peptide sequence: MAQLLVVLGK, peptide start residue: 981)",0.471
7,"SMC4 (peptide sequence: CHEMKPNLGAIAEYK, peptide start residue: 1083) (UniProt Q9NTJ3)",0.363
8,"ING3 (peptide sequence: YNPTSHHTTTDHIPEKK, peptide start residue: 149) (UniProt Q9NXR8)",-0.405
9,"PDS5B (peptide sequence: ISKPDMSR, peptide start residue: 870) (UniProt Q9NTI5)",0.538
10,"TBC1D23 (peptide sequence: MSFNLPWPDRSCTER, peptide start residue: 519) (UniProt Q9NUY8)",-0.428
11,"FAM114A2 (peptide sequence: SLAELTACSIELFHK, peptide start residue: 381) (UniProt Q9NRY5)",0.418
12,"USE1 (peptide sequence: LAEEMLGLAR, peptide start residue: 172) (UniProt Q9NZ43)",-0.254
13,"UniProt Q9NUQ3 (peptide sequence: QENIELGEKLKK, peptide start residue: 267)",1.23
14,"ARMC1 (peptide sequence: GELGMMLSLQNVIQK, peptide start residue: 78) (UniProt Q9NVT9)",-0.362
15,"UniProt Q9NSI2 (peptide sequence: VHQAAVRPK, peptide start residue: 11)",0.0945
16,"ABCB8 (peptide sequence: TVLVIAHR, peptide start residue: 684) (UniProt Q9NUT2)",-0.0387
17,"MDN1 (peptide sequence: ASHPIVQK, peptide start residue: 1001) (UniProt Q9NU22)",0.329
18,"HELLS (peptide sequence: EEILSVAKK, peptide start residue: 145) (UniProt Q9NRZ9)",0.795
